Literature values, collected in patent publication EP4717275A1, “ANTI-LUNG CANCER COMBINED DRUG AND USE THEREOF” (Gunagdong Yinzhu Pharmaceutical Technology Co., Ltd, priority 2023, dated 2024).
At least one structure is not confirmed: it was looked up by name or label, or the drawing left a doubt.

System: mouse melanoma
Conditions: transplanted tumors, dexamethasone by intraperitoneal injection; cited from earlier work

## C[C@@H]1C[C@H]2[C@@H]3CCC4=CC(=O)C=C[C@]4(C)[C@@]3(F)[C@@H](O)C[C@]2(C)[C@@]1(O)C(=O)CO [dexamethasone]
  inhibition rate: 19.3%
